Results published in publication PMC11112123.
Results are given in words; binding and its absence hold for the method and conditions named. In cells and extracts the contact can be indirect. These calls come from enrichment with a bait or labelling near it, and not all partners need be listed. A no says only that the protein was not detected with the bait.

By UniProt entry, the sequences of proteins in these tests, tags left out.
UniProt Q8WVS4: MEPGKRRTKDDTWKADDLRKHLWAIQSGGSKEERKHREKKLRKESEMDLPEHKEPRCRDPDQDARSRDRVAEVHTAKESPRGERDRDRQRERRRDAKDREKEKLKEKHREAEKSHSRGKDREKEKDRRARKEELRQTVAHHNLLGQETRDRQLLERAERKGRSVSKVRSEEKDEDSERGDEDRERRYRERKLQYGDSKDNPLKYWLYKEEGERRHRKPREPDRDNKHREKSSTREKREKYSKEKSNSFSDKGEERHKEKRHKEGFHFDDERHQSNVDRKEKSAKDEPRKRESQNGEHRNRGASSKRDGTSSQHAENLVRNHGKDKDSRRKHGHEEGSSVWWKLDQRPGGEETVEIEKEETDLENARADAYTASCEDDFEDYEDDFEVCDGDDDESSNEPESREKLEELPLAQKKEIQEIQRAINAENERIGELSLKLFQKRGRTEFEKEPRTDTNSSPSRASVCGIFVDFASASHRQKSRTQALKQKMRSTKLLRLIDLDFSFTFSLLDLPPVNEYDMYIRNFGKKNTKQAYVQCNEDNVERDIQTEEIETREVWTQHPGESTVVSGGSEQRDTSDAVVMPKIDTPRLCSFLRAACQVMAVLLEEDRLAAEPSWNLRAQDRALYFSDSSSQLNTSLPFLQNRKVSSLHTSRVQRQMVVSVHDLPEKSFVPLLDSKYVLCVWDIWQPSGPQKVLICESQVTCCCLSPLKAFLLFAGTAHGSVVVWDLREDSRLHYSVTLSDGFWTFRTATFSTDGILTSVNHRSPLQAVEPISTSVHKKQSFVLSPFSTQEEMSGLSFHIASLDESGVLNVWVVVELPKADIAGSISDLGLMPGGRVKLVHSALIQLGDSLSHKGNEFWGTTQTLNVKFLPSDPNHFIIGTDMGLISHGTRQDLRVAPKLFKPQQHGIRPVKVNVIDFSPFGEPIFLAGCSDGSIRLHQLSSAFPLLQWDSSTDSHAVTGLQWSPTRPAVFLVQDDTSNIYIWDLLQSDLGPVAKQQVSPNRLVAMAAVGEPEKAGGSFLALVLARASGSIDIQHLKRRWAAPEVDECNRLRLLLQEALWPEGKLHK
UniProt P63172: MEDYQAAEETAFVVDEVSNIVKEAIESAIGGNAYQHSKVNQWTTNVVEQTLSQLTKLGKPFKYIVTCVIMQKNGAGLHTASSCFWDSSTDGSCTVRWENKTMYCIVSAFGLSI
UniProt P51808: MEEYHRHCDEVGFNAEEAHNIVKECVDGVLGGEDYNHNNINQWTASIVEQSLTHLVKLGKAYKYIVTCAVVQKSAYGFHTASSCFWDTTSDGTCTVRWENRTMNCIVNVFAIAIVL
UniProt Q8NCM8: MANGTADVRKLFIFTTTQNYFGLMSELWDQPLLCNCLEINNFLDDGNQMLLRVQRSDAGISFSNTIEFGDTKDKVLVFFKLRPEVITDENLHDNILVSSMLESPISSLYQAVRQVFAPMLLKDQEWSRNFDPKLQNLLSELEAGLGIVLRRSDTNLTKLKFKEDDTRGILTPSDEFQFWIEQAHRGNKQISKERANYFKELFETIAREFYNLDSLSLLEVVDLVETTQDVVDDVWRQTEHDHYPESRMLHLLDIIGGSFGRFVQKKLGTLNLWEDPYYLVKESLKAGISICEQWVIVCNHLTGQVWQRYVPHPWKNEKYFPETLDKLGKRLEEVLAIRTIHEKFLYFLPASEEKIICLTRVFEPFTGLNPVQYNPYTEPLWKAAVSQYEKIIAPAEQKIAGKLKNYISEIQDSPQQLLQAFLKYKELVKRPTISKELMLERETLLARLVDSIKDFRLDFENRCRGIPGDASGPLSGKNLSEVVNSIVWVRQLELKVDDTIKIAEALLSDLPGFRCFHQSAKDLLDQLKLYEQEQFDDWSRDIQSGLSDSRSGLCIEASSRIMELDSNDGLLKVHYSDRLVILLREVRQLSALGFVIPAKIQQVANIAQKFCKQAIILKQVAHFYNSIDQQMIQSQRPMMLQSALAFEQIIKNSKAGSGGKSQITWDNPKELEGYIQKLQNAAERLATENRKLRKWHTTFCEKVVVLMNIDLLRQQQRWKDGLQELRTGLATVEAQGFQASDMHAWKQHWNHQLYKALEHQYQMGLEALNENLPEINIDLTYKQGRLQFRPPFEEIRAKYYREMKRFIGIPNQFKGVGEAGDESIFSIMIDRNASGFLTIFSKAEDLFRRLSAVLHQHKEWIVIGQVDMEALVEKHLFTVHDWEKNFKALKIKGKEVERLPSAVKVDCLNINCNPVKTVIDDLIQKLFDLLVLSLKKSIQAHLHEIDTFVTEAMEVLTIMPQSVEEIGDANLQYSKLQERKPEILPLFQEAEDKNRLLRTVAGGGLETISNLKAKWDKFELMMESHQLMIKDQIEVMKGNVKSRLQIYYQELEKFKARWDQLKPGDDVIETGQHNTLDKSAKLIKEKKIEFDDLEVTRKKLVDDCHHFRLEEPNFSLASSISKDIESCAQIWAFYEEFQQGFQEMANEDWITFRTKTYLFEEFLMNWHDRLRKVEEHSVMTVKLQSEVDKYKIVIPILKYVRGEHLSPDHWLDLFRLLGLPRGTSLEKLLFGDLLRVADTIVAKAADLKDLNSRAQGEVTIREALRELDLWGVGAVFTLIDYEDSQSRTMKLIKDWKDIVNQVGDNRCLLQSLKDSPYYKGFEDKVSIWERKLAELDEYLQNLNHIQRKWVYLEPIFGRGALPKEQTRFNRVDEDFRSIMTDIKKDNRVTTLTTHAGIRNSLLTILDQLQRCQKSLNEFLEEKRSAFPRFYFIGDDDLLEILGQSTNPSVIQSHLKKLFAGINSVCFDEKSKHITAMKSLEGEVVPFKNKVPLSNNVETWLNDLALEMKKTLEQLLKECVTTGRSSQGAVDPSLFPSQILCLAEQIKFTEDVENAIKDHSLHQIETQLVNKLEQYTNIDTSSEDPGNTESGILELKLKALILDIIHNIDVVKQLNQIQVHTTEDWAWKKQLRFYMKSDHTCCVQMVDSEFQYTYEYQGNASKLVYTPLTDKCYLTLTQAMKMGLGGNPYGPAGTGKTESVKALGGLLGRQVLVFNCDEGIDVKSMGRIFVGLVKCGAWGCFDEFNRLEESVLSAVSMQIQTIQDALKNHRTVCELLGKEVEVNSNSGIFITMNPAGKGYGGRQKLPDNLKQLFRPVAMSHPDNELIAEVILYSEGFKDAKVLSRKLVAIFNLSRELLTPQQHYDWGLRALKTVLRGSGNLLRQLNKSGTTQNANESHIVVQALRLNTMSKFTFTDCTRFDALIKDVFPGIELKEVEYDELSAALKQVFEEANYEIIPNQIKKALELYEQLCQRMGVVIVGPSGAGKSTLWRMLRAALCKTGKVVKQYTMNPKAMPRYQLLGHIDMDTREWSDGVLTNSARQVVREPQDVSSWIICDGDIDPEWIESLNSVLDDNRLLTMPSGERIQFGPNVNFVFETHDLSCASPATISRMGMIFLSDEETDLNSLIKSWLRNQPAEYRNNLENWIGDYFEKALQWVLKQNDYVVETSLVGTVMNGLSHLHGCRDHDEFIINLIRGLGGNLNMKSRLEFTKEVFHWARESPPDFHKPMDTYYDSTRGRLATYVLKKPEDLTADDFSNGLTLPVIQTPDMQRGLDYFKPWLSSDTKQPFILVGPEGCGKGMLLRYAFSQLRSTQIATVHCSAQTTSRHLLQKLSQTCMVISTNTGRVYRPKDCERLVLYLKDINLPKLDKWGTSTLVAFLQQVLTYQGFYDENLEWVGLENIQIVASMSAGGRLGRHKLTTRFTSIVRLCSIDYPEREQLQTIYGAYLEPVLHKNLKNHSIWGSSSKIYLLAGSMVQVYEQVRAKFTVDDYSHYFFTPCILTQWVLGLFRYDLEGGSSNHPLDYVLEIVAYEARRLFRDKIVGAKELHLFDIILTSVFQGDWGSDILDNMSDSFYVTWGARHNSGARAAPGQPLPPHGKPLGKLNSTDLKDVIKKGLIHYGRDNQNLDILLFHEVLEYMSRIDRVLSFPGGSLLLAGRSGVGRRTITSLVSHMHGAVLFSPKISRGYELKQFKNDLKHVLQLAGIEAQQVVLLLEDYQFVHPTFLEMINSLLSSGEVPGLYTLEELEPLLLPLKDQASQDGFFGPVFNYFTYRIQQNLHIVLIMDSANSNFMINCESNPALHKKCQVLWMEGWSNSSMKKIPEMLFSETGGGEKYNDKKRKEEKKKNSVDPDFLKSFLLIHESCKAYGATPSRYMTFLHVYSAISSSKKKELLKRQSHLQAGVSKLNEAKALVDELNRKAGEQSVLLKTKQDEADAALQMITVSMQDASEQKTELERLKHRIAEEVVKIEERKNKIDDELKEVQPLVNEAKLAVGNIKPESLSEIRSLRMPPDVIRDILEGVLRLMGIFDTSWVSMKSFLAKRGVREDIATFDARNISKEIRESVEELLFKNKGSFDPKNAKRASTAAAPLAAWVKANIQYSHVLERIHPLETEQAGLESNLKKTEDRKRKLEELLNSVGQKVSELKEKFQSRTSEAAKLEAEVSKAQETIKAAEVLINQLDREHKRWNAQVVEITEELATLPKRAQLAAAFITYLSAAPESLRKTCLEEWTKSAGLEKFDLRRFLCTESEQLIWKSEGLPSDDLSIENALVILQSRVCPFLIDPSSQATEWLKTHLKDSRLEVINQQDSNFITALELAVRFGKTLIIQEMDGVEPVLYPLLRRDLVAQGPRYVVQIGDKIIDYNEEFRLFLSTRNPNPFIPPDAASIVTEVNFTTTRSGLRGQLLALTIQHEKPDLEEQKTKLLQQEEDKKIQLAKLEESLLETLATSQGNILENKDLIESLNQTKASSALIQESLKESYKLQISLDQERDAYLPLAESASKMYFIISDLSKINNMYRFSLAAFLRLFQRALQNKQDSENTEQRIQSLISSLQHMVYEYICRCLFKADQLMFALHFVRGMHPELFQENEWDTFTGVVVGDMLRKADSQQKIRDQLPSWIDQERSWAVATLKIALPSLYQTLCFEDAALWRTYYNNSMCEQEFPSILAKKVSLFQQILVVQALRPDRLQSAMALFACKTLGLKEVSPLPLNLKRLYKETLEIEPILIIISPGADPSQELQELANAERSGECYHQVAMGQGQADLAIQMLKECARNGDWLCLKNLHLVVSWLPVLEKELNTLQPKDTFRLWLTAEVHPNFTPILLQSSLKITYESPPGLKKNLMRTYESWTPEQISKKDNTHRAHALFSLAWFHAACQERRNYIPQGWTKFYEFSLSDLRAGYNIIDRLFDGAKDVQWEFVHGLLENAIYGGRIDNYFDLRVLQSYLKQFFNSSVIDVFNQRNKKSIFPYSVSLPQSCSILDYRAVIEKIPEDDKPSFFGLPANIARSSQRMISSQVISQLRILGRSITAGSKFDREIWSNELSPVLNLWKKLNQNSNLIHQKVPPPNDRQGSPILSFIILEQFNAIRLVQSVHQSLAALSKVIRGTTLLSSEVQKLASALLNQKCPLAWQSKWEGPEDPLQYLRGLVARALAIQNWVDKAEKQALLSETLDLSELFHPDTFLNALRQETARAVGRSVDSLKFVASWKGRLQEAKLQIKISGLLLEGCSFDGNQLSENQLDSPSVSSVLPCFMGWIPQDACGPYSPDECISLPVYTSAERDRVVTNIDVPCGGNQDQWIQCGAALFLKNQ
UniProt Q96EX3: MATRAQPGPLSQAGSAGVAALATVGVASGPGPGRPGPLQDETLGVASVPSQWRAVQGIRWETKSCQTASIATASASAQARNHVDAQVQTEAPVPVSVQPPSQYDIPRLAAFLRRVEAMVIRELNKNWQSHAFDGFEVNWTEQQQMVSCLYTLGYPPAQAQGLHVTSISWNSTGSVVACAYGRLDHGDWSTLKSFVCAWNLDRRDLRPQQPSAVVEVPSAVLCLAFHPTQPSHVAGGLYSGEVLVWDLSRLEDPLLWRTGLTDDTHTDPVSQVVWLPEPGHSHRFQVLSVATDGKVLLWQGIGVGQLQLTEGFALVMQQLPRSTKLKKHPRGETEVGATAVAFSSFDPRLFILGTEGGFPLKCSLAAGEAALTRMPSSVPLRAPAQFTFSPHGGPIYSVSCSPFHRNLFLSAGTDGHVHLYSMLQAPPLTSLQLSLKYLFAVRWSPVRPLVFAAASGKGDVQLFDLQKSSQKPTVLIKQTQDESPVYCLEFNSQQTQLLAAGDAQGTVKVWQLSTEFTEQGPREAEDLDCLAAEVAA

These substances were tested against HA–WDR60 (human) (UniProt Q8WVS4) (assay: affinity purification with mass spectrometry; HA–WDR60 on HA–agarose beads from transfected RPE1 WT and CEP170 KO cells, trypsin digest, TMT labelling; abundance against HA–GFP; three independent experiments).
CEP170B (from UniProt Q9Y4F5 1-1589) was tested, and the binding was “no binding”. For “DYNLT1 (TCTEX1) (from UniProt P63172 1-113)”, the binding was “binds”. For “DYNLT3 (TCTEX3) (from UniProt P51808 1-116)”, the binding was “binds”. In the case of “dynein-2 heavy chain (DHC2) (from UniProt Q8NCM8 1-4307)”, the binding is reported as “binds”. For “intermediate chain WDR34 (from UniProt Q96EX3 1-536)”, the binding was “binds”.
